Experimental data from paper doi:10.1101/2021.01.04.425182.
Results are given in words; binding and its absence hold for the method and conditions named. Some binding calls cover weakened binding; strength is not graded here.

Sequences of proteins named here, by UniProt entry; tags and fusion partners are left off. Residues count along the entry.
UniProt P14210, residues 32-728: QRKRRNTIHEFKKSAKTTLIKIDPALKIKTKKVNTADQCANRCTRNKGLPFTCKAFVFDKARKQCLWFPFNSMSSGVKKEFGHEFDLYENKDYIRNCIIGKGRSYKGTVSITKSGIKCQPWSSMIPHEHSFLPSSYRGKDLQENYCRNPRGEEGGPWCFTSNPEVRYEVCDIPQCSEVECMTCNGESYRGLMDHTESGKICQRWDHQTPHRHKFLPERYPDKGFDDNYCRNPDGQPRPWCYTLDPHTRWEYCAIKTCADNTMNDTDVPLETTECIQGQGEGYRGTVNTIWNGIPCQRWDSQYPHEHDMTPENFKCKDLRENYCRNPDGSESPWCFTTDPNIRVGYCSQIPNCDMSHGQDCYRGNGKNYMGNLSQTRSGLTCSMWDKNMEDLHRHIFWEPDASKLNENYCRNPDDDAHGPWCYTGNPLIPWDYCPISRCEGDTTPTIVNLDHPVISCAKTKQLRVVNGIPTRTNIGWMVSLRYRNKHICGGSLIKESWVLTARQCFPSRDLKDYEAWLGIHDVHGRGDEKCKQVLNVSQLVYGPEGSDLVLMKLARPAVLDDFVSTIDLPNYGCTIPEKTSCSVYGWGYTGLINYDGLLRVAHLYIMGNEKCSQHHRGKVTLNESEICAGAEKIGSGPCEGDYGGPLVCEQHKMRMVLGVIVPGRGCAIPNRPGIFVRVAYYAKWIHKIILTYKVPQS

Molecular target: T1, prolargin (PRELP), recombinant human (human) (UniProt P51888)
T1 sequence: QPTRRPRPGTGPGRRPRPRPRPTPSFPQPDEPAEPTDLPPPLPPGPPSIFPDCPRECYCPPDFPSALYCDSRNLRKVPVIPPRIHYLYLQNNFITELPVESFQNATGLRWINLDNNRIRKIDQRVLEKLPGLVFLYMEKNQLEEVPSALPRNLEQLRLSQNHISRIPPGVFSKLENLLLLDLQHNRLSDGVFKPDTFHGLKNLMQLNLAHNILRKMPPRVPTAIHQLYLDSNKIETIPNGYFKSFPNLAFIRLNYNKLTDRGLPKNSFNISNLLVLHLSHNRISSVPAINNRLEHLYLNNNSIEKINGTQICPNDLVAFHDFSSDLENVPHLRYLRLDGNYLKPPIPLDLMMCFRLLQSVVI
Test: SPR

For “HGF (from UniProt P14210 32-728) (ligand)”, the binding was “binds”.
